From patent US20100227841A1, “Patient populations and treatment methods” (Harbor BioSciencs, Inc., priority 2008, published 2010)
At least one compound was matched to its structure with a doubt left.

Legend:
female NOD mice = assay: Spontaneous autoimmune diabetes in non-obese diabetic (NOD) mouse model; format: in vivo; conditions: weeks 23 through 25 (vehicle 66%); p<0.05 Chi-Squared test
Description: Treatment of spontaneous autoimmune diabetes in non-obese diabetic (NOD) mouse model. The NOD model is used as an animal model for human type 1 diabetes. The NOD mouse strain spontaneously develops autoimmune (type 1) diabetes by a process that has similarities to human type 1 diabetes mellitus, e.g., immune-mediated selective destruction of the pancreatic islet 13-cells that produce insulin (M. A. Atkinson and N. K. Maclaren, New England J. Medicine, 331:1428-1436 1994). There is a higher incidence of diabetes (i.e., hyperglycemia, glucosuria, and hypoinsulinemia) in female vs. male NOD mice (80-90% vs. 10-20%, respectively). […]
Female NOD mice were treated once daily with vehicle, 17α-ethynylandrost-5-ene-3β,7β,17β-triol (20 or 80 mg/kg in 100 μL, p.o.), or dexamethasone (0.25 mg/kg, 100 μL, i.p.) from 15 to 25 weeks of age (i.e., before the first incidence of diabetes; at the University of Catania), from 13 to 19 weeks of age (2 days after the first incidence of diabetes), or from 12 to 26 weeks of age (9 days after the first incidence of diabetes). Blood glucose was monitored using glucometers (ENCORE Glucometer, Bayer Corp., Elkhart, Ind.) at weekly intervals, beginning at 10 weeks of age. […] The percentage of animals with diabetes over the course of the experiment was monitored. […]

[1] = tested on: Zucker Diabetic Fatty (ZDF) rats; assay: Zucker Diabetic Fatty (ZDF) rat study (glucose, clamp, adipose histology, lipid profiles); format: in vivo
Experimental: The study was staggered into 6 cohorts conducted on different days. Forty-two male Zucker Diabetic Fatty (ZDF) rats and six Zucker Fatty rats at 7-week of age were obtained from Charles River laboratories (Wilmington, Mass.). The rats were housed individually in polycarbonate cages in a temperature-controlled room on a 12 h: 12 h light: dark cycle with the lights on at 0600 h. Rats were fed ad libitum except during the experiments. After one week of acclimation to environmental conditions, the ZDF rats began daily oral treatment for 32 to 35 days with vehicle (n=18), 100 mg/kg/day 17α-ethynylandrost-5-ene-3β,7β,17β-triol (n=15), or 10 mg/kg/day rosiglitazone (n=9).
Glucose levels were measured using a One-Touch glucometer (Lifescan). Extra serum samples were collected for free fatty acid (FFA), free glycerol, pyruvate, and lactate measurements. Glucose, insulin and pyruvate tolerance tests were performed on 6 hr fasted rats. For GTT, animals were orally gavaged with glucose (1 g/kg), whereas for ITT, 0.35 units/kg insulin (Novolin R, Novo-Nordisk) was injected intraperitoneally. Blood samples were taken at basal and 15, 30, 60, 90 and 120 min after injection. For the pyruvate tolerance test (PTT), 1 g/kg of pyruvate was used.
Dual jugular venous cannulae and one carotid arterial cannula were implanted in rats. The rats were allowed to recover for 4 to 5 days before clamp procedure. The hyperinsulinemic euglycemic clamp experiments began with a priming injection (7.5 μCi/0.2 ml) and constant infusion (0.25 μCi/min) of D-[3-^3H] glucose (Du Pont-NEN, Boston, Mass.). After 60 min of tracer equilibration and basal sampling at t=−10 and 0 min, glucose (50% dextrose, variable infusion; Abbott) and tracer (0.25 μCi/min) plus insulin ([…]) were infused into the jugular vein. Small blood samples were drawn at 10-min intervals and immediately analyzed for glucose to maintain the integrity of the glucose clamp throughout the duration of the experiment. Blood samples were taken at t=−60 (start of experiment), −10, 0 (basal), 110, and 120 (end of experiment) min to determine glucose-specific activity and insulin, and free fatty acid (FFA). To ensure accuracy, basal and terminal sampling was performed twice at 10-min intervals. The achievement of steady-state conditions (100 mg/dl±5 mg/dl) was confirmed at the end of the clamp by measuring blood glucose every 10 min and ensuring that steady state for glucose infusion and plasma glucose levels were maintained for a minimum of 20 min. All blood samples were immediately centrifuged, and plasma was stored at −80° C. for subsequent analysis.
Following a 3-day recovery after clamp, rats were fasted 6 hours and euthanized. Tissues were harvested at basal state or acute insulin-stimulated state (5 U/kg). Insulin levels were analyzed by ELISA assay (Alpco Diagnostics). FFA levels were measured by enzymatic assay (Wako Diagnostics). Glycerol levels were measured using an assay kit from Sigma. Lactate and pyruvate assay kits were obtained from Biovision. TNFα and IL-1βwere measured by ELISA assays (Biosource).
Immunohistochemistry and quantification of crown-like structure (CLS) were done. These studies were conducted using paraffin-embedded adipose (epididymal) tissue sections from the rats incubated with MAC-2 antibody (Abcam) at a 1:100 dilution overnight at 4° C. Subsequently, biotinylated anti-rat secondary antibody (BD Bioscience) was used at 1:100 dilution, followed by 1:500 HRP-Streptavidin (Jackson ImmunoResearch) and development in substrate chromogen. Slides were counterstained with Mayer's and mounted with Vectashield mounting media with DAPI (Vector). Both bright field (MAC-2) and fluorescent photographs (DAPI) were taken of 3 representative fields per slide in a blinded fashion using a fluorescent microscope (10× objective).
Gene expression analyses used total RNA extracted from tissue with Purelink total RNA purification system (Invitrogen) following the manufacturer's protocol.

[2] = ZDF rats, rosiglitazone 10 mg/kg/d
[3] = ZDF rats, rosiglitazone 10 mg/kg/d, positive control
[4] = euglycemic-hyperinsulinemic clamp, triol 100 mg/kg/d, rosiglitazone 10 mg/kg/d (more robust)

Row | Compound | maximum disease incidence during treatment (female NOD mice) | intracellular triacylglycerol (TAG) content in livers ([1]; ZDF rats) | MCP-1 in adipose tissue ([1]; ZDF rats, p<0.05) | TNFα in adipose tissue ([1]; ZDF rats, p<0.05) | Diacylglycerol content in white adipose tissue [1, 2] | fatty acid content in white adipose tissue [1, 2] | serum cholesteryl esters, total cholesterol and free cholesterol, relative to the triol's effects [1, 2] | hyperglycemia [1, 3] | hyperinsulinemia [1, 3] | Basal rates of hepatic glucose production (HGP) ([1]; clamp, triol 100 mg/kg/d, rosiglitazone 10 mg/kg/d) | glucose infusion rate [1, 4] | insulin-stimulated glucose disposal [1, 4]
1 | C[C@@H]1C[C@H]2[C@@H]3CCC4=CC(=O)C=C[C@]4(C)[C@@]3(F)[C@@H](O)C[C@]2(C)[C@@]1(O)C(=O)CO [dexamethasone, reference compound] | 8% |  |  |  |  |  |  |  |  |  |  | 
2 | CN(CCOc1ccc(CC2SC(=O)NC2=O)cc1)c1ccccn1 (stereo not drawn) [rosiglitazone, reference compound] |  | marked decrease | decrease | decrease | elevated | elevated | opposite | ameliorated | ameliorated | equally reduced | increase | increase
